These are yes or no findings as the source states them, for the method shown. In cells and extracts the contact can be indirect. Some binding calls cover weakened binding; strength is not graded here. Where a sequence is shown, tags or fusion partners need not be part of it. One block for each binder: values may come before it.
What was measured:
[1] = biological target: T1, La/SS-B (endogenous La) (human (endogenous in HEK 293 T)) (UniProt P05455); test: co-IP; HEK 293 T cells transfected with FLAG-RIG-I, stimulated 1, 3 or 6 h with 1 ug 5'ppp-dsRNA; EBC lysis buffer; endogenous La precipitated with SW5 anti-La antibody on protein A sepharose; RIG-I detected by anti-FLAG western blot
T1 sequence: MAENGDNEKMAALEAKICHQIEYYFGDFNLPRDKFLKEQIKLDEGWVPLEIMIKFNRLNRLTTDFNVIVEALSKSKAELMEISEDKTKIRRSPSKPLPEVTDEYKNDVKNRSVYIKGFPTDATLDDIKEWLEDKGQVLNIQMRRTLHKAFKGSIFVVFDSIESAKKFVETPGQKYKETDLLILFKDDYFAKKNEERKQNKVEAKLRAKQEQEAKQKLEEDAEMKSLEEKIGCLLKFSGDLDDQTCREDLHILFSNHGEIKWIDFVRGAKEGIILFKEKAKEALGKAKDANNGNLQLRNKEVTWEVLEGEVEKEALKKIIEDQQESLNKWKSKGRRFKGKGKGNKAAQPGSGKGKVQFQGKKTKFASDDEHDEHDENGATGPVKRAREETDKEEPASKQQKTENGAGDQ

[2] = biological target: T2, N-terminal-only (aa 1-204) His-tagged recombinant La (7 A) (UniProt P05455); test: pull-down; about 1 ug His-tagged recombinant La (full length or aa 1-204) on 50 ul Nickel agarose beads incubated 2 h at 4 C with lysates (EBC buffer) of HEK 293 T cells over-expressing FLAG-RIG-I constructs; washed three times with EBC buffer; western blot; only the target purified
T2 sequence: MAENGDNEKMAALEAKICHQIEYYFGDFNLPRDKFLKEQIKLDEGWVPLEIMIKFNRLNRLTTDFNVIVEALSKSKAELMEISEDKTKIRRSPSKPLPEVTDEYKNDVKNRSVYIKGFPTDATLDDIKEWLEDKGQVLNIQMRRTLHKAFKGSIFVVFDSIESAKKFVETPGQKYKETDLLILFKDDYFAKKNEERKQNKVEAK

[3] = biological target: T3, full-length His-tagged recombinant La (8 A) (UniProt P05455); test: as above
T3 sequence: T1 sequence

binding [1]: binds | binding [2]: binds | binding [3]: binds
B1: FLAG-tagged RIG-I (full length) (protein, UniProt O95786 1-925)
chain: MTTEQRRSLQAFQDYIRKTLDPTYILSYMAPWFREEEVQYIQAEKNNKGPMEAATLFLKFLLELQEEGWFRGFLDALDHAGYSGLYEAIESWDFKKIEKLEEYRLLLKRLQPEFKTRIIPTDIISDLSECLINQECEEILQICSTKGMMAGAEKLVECLLRSDKENWPKTLKLALEKERNKFSELWIVEKGIKDVETEDLEDKMETSDIQIFYQEDPECQNLSENSCPPSEVSDTNLYSPFKPRNYQLELALPAMKGKNTIICAPTGCGKTFVSLLICEHHLKKFPQGQKGKVVFFANQIPVYEQQKSVFSKYFERHGYRVTGISGATAENVPVEQIVENNDIIILTPQILVNNLKKGTIPSLSIFTLMIFDECHNTSKQHPYNMIMFNYLDQKLGGSSGPLPQVIGLTASVGVGDAKNTDEALDYICKLCASLDASVIATVKHNLEELEQVVYKPQKFFRKVESRISDKFKYIIAQLMRDTESLAKRICKDLENLSQIQNREFGTQKYEQWIVTVQKACMVFQMPDKDEESRICKALFLYTSHLRKYNDALIISEHARMKDALDYLKDFFSNVRAAGFDEIEQDLTQRFEEKLQELESVSRDPSNENPKLEDLCFILQEEYHLNPETITILFVKTRALVDALKNWIEGNPKLSFLKPGILTGRGKTNQNTGMTLPAQKCILDAFKASGDHNILIATSVADEGIDIAQCNLVILYEYVGNVIKMIQTRGRGRARGSKCFLLTSNAGVIEKEQINMYKEKMMNDSILRLQTWDEAVFREKILHIQTHEKFIRDSQEKPKPVPDKENKKLLCRKCKALACYTADVRVIEECHYTVLGDAFKECFVSRPHPKPKQFSSFEKRAKIFCARQNCSHDWGIHVKYKTFEIPVIKIESFVVEDIATGVQTLYSKWKDFHFEKIPFDPAEMSK

binding [2]: binds | binding [3]: binds
B2: FLAG-tagged RIG-I-CARD (domain or fragment, UniProt O95786 1-284)
chain: MTTEQRRSLQAFQDYIRKTLDPTYILSYMAPWFREEEVQYIQAEKNNKGPMEAATLFLKFLLELQEEGWFRGFLDALDHAGYSGLYEAIESWDFKKIEKLEEYRLLLKRLQPEFKTRIIPTDIISDLSECLINQECEEILQICSTKGMMAGAEKLVECLLRSDKENWPKTLKLALEKERNKFSELWIVEKGIKDVETEDLEDKMETSDIQIFYQEDPECQNLSENSCPPSEVSDTNLYSPFKPRNYQLELALPAMKGKNTIICAPTGCGKTFVSLLICEHHLKK

From article PMC5673980
